The values that follow come from PubChem BioAssay AID445 (National Center for Advancing Translational Sciences (NCATS), 2006).

Some of the results follow. Further columns of the screen follow, without active or inactive calls. Compounds called inactive in the main read-out are mostly missing here. The note in brackets gives the kind of curve behind each potency; many fits are weak.

The nature of the assay: IkB Signaling. The note with it: ABC-DLBCL IkBa-CBG/CBR dual luciferase ratio (green luciferase fused to IkBa over red control in OCI-Ly3 lymphoma cells), 4 h. Summed up: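 Luminescence ratio of IκBα-fused green versus native red beetle luciferase in OCI-Ly3 cells, 4 h post-doxycycline with compound; red signal alone, scaled from basal (0%) to zero light (-100%), flagged nonspecific or cytotoxic effects.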
Where [1] appears, read: measured here: control luc red channel unless noted.

One may read the AC50 as the concentration at which the activity in the assay is half-maximal. `Cc1cc(C)cc(-n2ccn(CC(=O)Nc3cc(C)ccc3C)c(=O)c2=O)c1`: under setting [1], the AC50 is 25.1 µM [falling, single point]. With `Cc1cccc(N2CCN(C(=O)CCNS(=O)(=O)c3ccc4c(c3)CCC(=O)N4)CC2)c1C`, under setting [1], the AC50 was 15.8 µM [falling, partial curve]. The same measure, in the same setting: the same measure for `Cc1ccc(-c2cn(-c3cccc(Cl)c3)c(S(=O)(=O)CC(=O)Nc3cccc(C)c3)n2)cc1`: 10 µM [falling, partial curve]. Consider `COc1ccc(CCNc2nc(-c3ccc(OC)c(OC)c3)cc(C(F)(F)F)n2)cc1OC`, for which the half-maximal activity concentration (AC50) under setting [1] was 10 µM [falling, partial curve].

As for `CN(C)CCCn1c(N)c(C#N)c2nc(C#N)c(C#N)nc21`, the AC50 under setting [1] was 25.1 µM [rising, partial curve] [measured here: IkB-luc green channel].

`COc1ccc2occ(C(=O)c3ccc(N=C(C)N(C)C)cc3)c2c1`: the AC50 under setting [1] is 12.6 µM [falling, partial curve]. As for `COc1ccc(CN2CCN(C(=O)CC(C)C)CC2)c2ccccc12`, the AC50 under setting [1] was 12.6 µM [falling, partial curve]. For `CSc1cccc(Nc2nc3c(S(=O)(=O)c4ccccc4)nnn3c3ccc(Cl)cc23)c1`, the AC50 under setting [1] is 25.1 µM [rising, single point]. Regarding `CCNc1nc(NC(C)C)nc(N(C#N)CCOc2ccc(Cl)cc2Cl)n1`, the AC50 under setting [1] was 12.6 µM [falling, partial curve]. `CCOc1ccc(OCc2ccc(C(=O)O)o2)cc1`: the AC50 under setting [1] was 2 µM [falling, full curve]. `Cc1ccc(C)c(NC(=O)CSc2ncc(S(=O)(=O)c3ccc(C)c(Cl)c3)c(=O)[nH]2)c1`: under setting [1], the half-maximal activity concentration (AC50) is 10 µM [falling, partial curve]. With `O=C(c1ccc2c(c1)N(Cc1ccc(F)cc1)C(=O)c1ccccc1S2=O)N1CCC(Cc2ccccc2)CC1` (stereo not given), under setting [1], the AC50 is 5.01 µM [falling, partial curve].

`CCc1ccc(CNC(=O)c2ccc(NC(=O)N3CCCCc4ccccc43)cc2)cc1`: the AC50 under setting [1] is 15.8 µM [falling, partial curve]. Turning to `COc1ccccc1NC(=O)c1cccc(S(=O)(=O)N2CCCCCC2)c1`, the AC50 under setting [1] is 25.1 µM [falling, single point]. On to `Cc1c(Cl)cccc1NC(=O)Nc1nnc(N2CCCCCC2)s1`, for which, under setting [1], the AC50 was 20 µM [falling, single point]. As to `COc1ccccc1OCC(=O)Nc1cccc(-c2nc3ccccc3o2)c1`, the half-maximal activity concentration (AC50) under setting [1] was 10 µM [falling, partial curve]. Consider `CNC(=O)c1ccccc1NC(=O)c1cccc(S(=O)(=O)N2CCC(C)CC2)c1`, for which the AC50 under setting [1] is 20 µM [falling, partial curve]. Same read-out and setting: the same measure for `COc1ccc(N2CCN(C(=O)c3cn(CC(C)C)c(=O)c4c3c3ccccc3n4C)CC2)cc1`: 15.8 µM [falling, partial curve]; for `CCc1ccc(-c2nn(CC(=O)Nc3ccccc3)c3c2cnc2ccc(F)cc23)cc1`: 0.0398 µM [rising, full curve, poor fit]. Same read-out and setting: for `COC(=O)C1=C(C)NC(C)=C([N+](=O)[O-])[C@H]1c1ccccc1C(F)(F)F` the value was 50.1 µM [falling, partial curve, poor fit]; for `CC(C)(C)C1CCc2c(sc(NC(=O)Cn3nnc(-c4ccccc4F)n3)c2C#N)C1` (stereo not given), 12.6 µM [falling, partial curve]; for `O=C(Cn1c(=O)c2cccn2c2ccccc21)Nc1cc(F)ccc1F`, 39.8 µM [falling, single point]. On the same count and under the same terms, the same measure for `COc1ccc(-c2[nH]ncc2C(=O)NCc2ccccc2C)cc1`: 0.398 µM [rising, full curve]; for `Cc1onc(-c2ccccc2Cl)c1C(=O)Oc1cc(F)cc(F)c1`: 25.1 µM [falling, single point]. Turning to `COC(=O)c1ccccc1NC(=O)Cn1c(=O)n(-c2cccc(OC)c2)c(=O)c2c(C)c(C(=O)N(C)C)sc21`, under setting [1], the AC50 is 5.01 µM [rising, partial curve].

For `CC1(C)CC2CC(C)(CN2c2ncnc3ccccc23)C1` (stereo not given), under setting [1], the half-maximal activity concentration (AC50) was 6.31 µM [falling, partial curve]. For the molecule `Clc1cccc(-n2ncc3c(N4CCCCC4)ncnc32)c1`, the concentration at half-maximal activity (AC50) under setting [1] is 15.8 µM [falling, partial curve].

For `CCN(c1cccc(C)c1)S(=O)(=O)c1ccc2[nH]cc(C(=O)NCCCOC)c(=O)c2c1`, the AC50 under setting [1] was 20 µM [falling, partial curve].

On to `CC1=C(C(=O)Nc2cc(-c3cccc(F)c3)[nH]n2)C2(CCCCC2)OC1=O`, for which the AC50 under setting [1] was 5.01 µM [falling, partial curve]. As for `CCC1CN(C(=O)N2CCC(C(=O)NCc3cccc(C)c3)CC2)c2ccccc2O1` (stereo not given), under setting [1], the AC50 is 10 µM [falling, partial curve].

For `O=C(Cn1c(=O)nc(-c2ccccc2F)c2cc(Cl)ccc21)N1CCN(c2ccccc2F)CC1`, under setting [1], the AC50 was 15.8 µM [falling, partial curve]. In the case of `COc1ccc(CNC(=O)c2c3c(nc4ccccc24)C(=O)N(C2CCCCC2)C3)c(OC)c1`, the AC50 under setting [1] was 12.6 µM [falling, partial curve]. On the same count and under the same terms, the same measure for `COC(=O)c1scc(-c2ccc(C)cc2)c1S(=O)(=O)Nc1cc(OC)c(OC)c(OC)c1`: 12.6 µM [falling, partial curve]. On to `CCCCCCCCC(=O)NCc1cc(OC)c(O)cc1I`, for which, under setting [1], the AC50 is 25.1 µM [falling, partial curve, poor fit]. With `CCOC(=O)c1ccc(Nc2c(-c3ccc(O)c(OC)c3)nc3nc[nH]n23)cc1`, the AC50 is, setting by setting: (measured here: IkB-luc green channel) 25.1 µM [rising, single point]; (measured here: control luc red channel) 39.8 µM [rising, single point]. For the molecule `COc1ccc(CNc2oc(-c3ccccc3)nc2C#N)cc1`, the AC50 under setting [1] was 39.8 µM [falling, single point]. As for `COc1cc(NS(=O)(=O)c2ccc3c(c2)CCN3S(C)(=O)=O)cc(OC)c1`, the AC50 under setting [1] is 39.8 µM [falling, partial curve, poor fit]. As for `Cc1ccccc1-c1nc(CS(=O)(=O)CC(=O)NCC(C)c2ccccc2)c(C)o1` (stereo not given), the half-maximal activity concentration (AC50) under setting [1] is 15.8 µM [falling, partial curve].

With `O=C(COc1ccccc1Cl)NCC1(N2CCOCC2)CCCCC1`, the half-maximal activity concentration (AC50) under setting [1] was 20 µM [falling, single point].
